These results are taken from PMC8162438, “Cancer cell-selective modulation of mitochondrial respiration and metabolism by potent organogold(III) dithiocarbamates” (Chemical Science, 2020).

For the series, the system named is MDA-MB-231. Briefly: Differential gene expression by RNA-sequencing. Format: cell-based. Particulars: MDA-MB-231, 1 μM, 12 h.

For the compound `C[N+](C)=C1[S][Au-2]2([S]1)[c]1ccccc1Cc1cccc[n+]12.F[P-](F)(F)(F)(F)F` (stereo not drawn) [2a], the “Differentially expressed genes (DEG), total” value turned out to be 3019; the Downregulated genes worked out at 1423; the Upregulated genes is reported as 1596.
